# Experimental data: paper PMC11148080, “Ru(II)-based complexes containing 2-thiouracil derivatives suppress liver cancer stem cells by targeting NF-κB and Akt/mTOR signaling” (Cell Death Discovery, 2024)
# Assays:
# Experiment in all cases: Alamar Blue cytotoxicity
# [1] = tested on: HL-60; assay type: cell-based, human
# Procedure: The Alamar Blue assay was used to measure cell viability, as previously described. Adherent cells were seeded in 96-well plates at a density of 7 × 10^3 cells per well, and suspended cells were seeded at 3 × 10^4 cells per well. Drugs were added to each well after overnight incubation for adherent cells or immediately after seeding for suspension cells, and incubation continued for an additional 72 h. […] Four hours (for cell lines) or 24 h (for primary cultures) before the end of incubation, 20 μL of resazurin (30 μM) (Sigma‒Aldrich Co. St. Louis, MO, USA) was added to each well. The absorbance at 570 and 600 nm was measured using a SpectraMax 190 microplate reader (Molecular Devices, Sunnyvale, CA, USA).
# [2] = tested on: A-375; assay type: cell-based, human
# Procedure: (§1) The Alamar Blue assay was used to measure cell viability, as previously described. Adherent cells were seeded in 96-well plates at a density of 7 × 10^3 cells per well, and suspended cells were seeded at 3 × 10^4 cells per well. Drugs were added to each well after overnight incubation for adherent cells or immediately after seeding for suspension cells, and incubation continued for an additional 72 h. The positive control included doxorubicin (Laboratorio IMA S.A.I.C., Buenos Aires, Argentina). Four hours (for cell lines) or 24 h (for primary cultures) before the end of incubation, 20 μL of resazurin (30 μM) (Sigma‒Aldrich Co. St. Louis, MO, USA) was added to each well. The absorbance at 570 and 600 nm was measured using a SpectraMax 190 microplate reader (Molecular Devices, Sunnyvale, CA, USA).
# [3] = tested on: U-87 MG; assay type: cell-based, human
# Procedure: as §1
# [4] = tested on: K-562; assay type: cell-based, human
# Procedure: as §1
# [5] = tested on: A549; assay type: cell-based, human
# Procedure: as §1
# [6] = tested on: HCT116; assay type: cell-based, human
# Procedure: as §1
# [7] = tested on: CAL 27; assay type: cell-based, human
# Procedure: as §1
# [8] = tested on: KG-1a; assay type: cell-based, human
# Procedure: as §1
# [9] = tested on: HSC-3; assay type: cell-based, human
# Procedure: as §1
# [10] = tested on: Jurkat; assay type: cell-based, human
# Procedure: as §1
# [11] = tested on: SCC-25; assay type: cell-based, human
# Procedure: as §1
# [12] = tested on: SCC4; assay type: cell-based, human
# Procedure: as §1
# [13] = tested on: PANC-1; assay type: cell-based, human
# Procedure: as §1
# [14] = tested on: THP-1; assay type: cell-based, human
# Procedure: as §1
# [15] = tested on: OVCAR-3; assay type: cell-based, human
# Procedure: as §1
# [16] = tested on: HepG2; assay type: cell-based, human
# Procedure: as §1
# [17] = tested on: SCC-9; assay type: cell-based, human
# Procedure: as §1
# [18] = tested on: MDA-MB-231; assay type: cell-based, human
# Procedure: as §1
# [19] = tested on: MCF-7; assay type: cell-based, human
# Procedure: as §1
# [20] = tested on: NB4; assay type: cell-based, human
# Procedure: as §1
# [21] = tested on: DU 145; assay type: cell-based, human
# Procedure: as §1
# [22] = tested on: B16-F10; assay type: cell-based, mouse
# Procedure: as §1
# [23] = tested on: 4T1; assay type: cell-based, mouse
# Procedure: as §1
smiles,measurement,setting,value
"Cc1cc(=O)nc([S][Ru+])[nH]1.F[P-](F)(F)(F)(F)F.c1ccc(-c2ccccn2)nc1.c1ccc(P(c2ccccc2)c2ccccc2)cc1.c1ccc(P(c2ccccc2)c2ccccc2)cc1 [Complex 2, trans-[Ru(6m2TU)(PPh3)2(bipy)]PF6]",Selectivity index,[1]; IC50 BJ/IC50 HL-60,1.90
same,Selectivity index,[1]; IC50 MRC-5/IC50 HL-60,3.70
same,Selectivity index,[1]; IC50 PBMC/IC50 HL-60,2.84
same,Selectivity index,[2]; IC50 BJ/IC50 A-375,3.90
same,Selectivity index,[2]; IC50 MRC-5/IC50 A-375,7.61
same,Selectivity index,[2]; IC50 PBMC/IC50 A-375,5.83
same,Selectivity index,[3]; IC50 BJ/IC50 U-87 MG,2.11
same,Selectivity index,[3]; IC50 MRC-5/IC50 U-87 MG,4.12
same,Selectivity index,[3]; IC50 PBMC/IC50 U-87 MG,3.16
same,Selectivity index,[4]; IC50 BJ/IC50 K-562,1.01
same,Selectivity index,[4]; IC50 MRC-5/IC50 K-562,1.98
same,Selectivity index,[4]; IC50 PBMC/IC50 K-562,1.52
same,Selectivity index,[5]; IC50 BJ/IC50 A549,0.74
same,Selectivity index,[5]; IC50 MRC-5/IC50 A549,1.46
same,Selectivity index,[5]; IC50 PBMC/IC50 A549,1.11
same,Selectivity index,[6]; IC50 MRC-5/IC50 HCT116,3.37
same,Selectivity index,[6]; IC50 PBMC/IC50 HCT116,2.58
same,Selectivity index,[7]; IC50 BJ/IC50 CAL 27,1.81
same,Selectivity index,[7]; IC50 MRC-5/IC50 CAL 27,3.53
same,Selectivity index,[7]; IC50 PBMC/IC50 CAL 27,2.71
same,Selectivity index,[8]; IC50 BJ/IC50 KG-1a,2.07
same,Selectivity index,[8]; IC50 MRC-5/IC50 KG-1a,4.04
same,Selectivity index,[8]; IC50 PBMC/IC50 KG-1a,3.09
same,Selectivity index,[9]; IC50 BJ/IC50 HSC-3,1.40
same,Selectivity index,[9]; IC50 MRC-5/IC50 HSC-3,2.74
same,Selectivity index,[9]; IC50 PBMC/IC50 HSC-3,2.10
same,Selectivity index,[10]; IC50 BJ/IC50 Jurkat,1.58
same,Selectivity index,[10]; IC50 MRC-5/IC50 Jurkat,3.08
same,Selectivity index,[10]; IC50 PBMC/IC50 Jurkat,2.36
same,Selectivity index,[11]; IC50 BJ/IC50 SCC-25,2.15
same,Selectivity index,[11]; IC50 MRC-5/IC50 SCC-25,4.19
same,Selectivity index,[11]; IC50 PBMC/IC50 SCC-25,3.21
same,Selectivity index,[12]; IC50 BJ/IC50 SCC4,2.24
same,Selectivity index,[12]; IC50 MRC-5/IC50 SCC4,4.37
same,Selectivity index,[12]; IC50 PBMC/IC50 SCC4,3.35
same,Selectivity index,[13]; IC50 BJ/IC50 PANC-1,1.90
same,Selectivity index,[13]; IC50 MRC-5/IC50 PANC-1,3.72
same,Selectivity index,[13]; IC50 PBMC/IC50 PANC-1,2.85
same,Selectivity index,[14]; IC50 BJ/IC50 THP-1,1.20
same,Selectivity index,[14]; IC50 MRC-5/IC50 THP-1,2.35
same,Selectivity index,[14]; IC50 PBMC/IC50 THP-1,1.80
same,Selectivity index,[15]; IC50 BJ/IC50 OVCAR-3,4.81
same,Selectivity index,[15]; IC50 MRC-5/IC50 OVCAR-3,9.40
same,Selectivity index,[15]; IC50 PBMC/IC50 OVCAR-3,7.20
same,Selectivity index,[16]; IC50 BJ/IC50 HepG2,2.46
same,Selectivity index,[16]; IC50 MRC-5/IC50 HepG2,4.80
same,Selectivity index,[16]; IC50 PBMC/IC50 HepG2,3.68
same,Selectivity index,[17]; IC50 BJ/IC50 SCC-9,3.07
same,Selectivity index,[17]; IC50 MRC-5/IC50 SCC-9,5.99
same,Selectivity index,[17]; IC50 PBMC/IC50 SCC-9,4.59
same,Selectivity index,[18]; IC50 BJ/IC50 MDA-MB-231,2.64
same,Selectivity index,[18]; IC50 MRC-5/IC50 MDA-MB-231,5.16
same,Selectivity index,[18]; IC50 PBMC/IC50 MDA-MB-231,3.95
same,Selectivity index,[19]; IC50 BJ/IC50 MCF-7,1.07
same,Selectivity index,[19]; IC50 MRC-5/IC50 MCF-7,2.09
same,Selectivity index,[19]; IC50 PBMC/IC50 MCF-7,1.60
same,Selectivity index,[20]; IC50 BJ/IC50 NB4,1.48
same,Selectivity index,[20]; IC50 MRC-5/IC50 NB4,2.90
same,Selectivity index,[20]; IC50 PBMC/IC50 NB4,2.22
same,Selectivity index,[21]; IC50 BJ/IC50 DU 145,2.08
same,Selectivity index,[21]; IC50 MRC-5/IC50 DU 145,4.07
same,Selectivity index,[21]; IC50 PBMC/IC50 DU 145,3.12
same,Selectivity index,[22]; IC50 BJ/IC50 B16-F10,2.83
same,Selectivity index,[22]; IC50 MRC-5/IC50 B16-F10,5.53
same,Selectivity index,[22]; IC50 PBMC/IC50 B16-F10,4.24
same,Selectivity index,[23]; IC50 MRC-5/IC50 4T1,3.37
same,Selectivity index,[23]; IC50 PBMC/IC50 4T1,2.58
